Reference: patent publication US20130039923A1 (Novo Nordisk, published 2013)
Numbering of substitutions follows the chain as printed. These are yes or no findings as the source states them, for the method shown. Some entries that bind do so weakly or less than the wild type. Values belong to the binder of their own block, whether it stands above or below them.

Biological target: T1, Peptide no. 40 (Figure 8A)
T1 sequence (peptide): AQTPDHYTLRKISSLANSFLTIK
Test: Ala-scan peptide array of hIL20 74-96 on cellulose; fluorescein-labelled antibody; fluorescence as OD

binding: binds
B1: human anti-hIL20 monoclonal antibody 15D2 (antibody, V domains shown)
VH: QVQLVQSGAEVKRPGASVKVSCKASGYTFTNDIIHWVRQAPGQRLEWMGWINAGYGNTQYSQNFQDRVSITRDTSASTAYMELISLRSEDTAVYYCAREPLWFGESSPHDYYGMDVWGQGTTVTVSS
VL: AIQLTQSPSSLSASVGDRVTITCRASQGISSALAWYQQKPGKAPKLLIYDASSLESGVPSRFSGSGSGTDFTLTISSLQPEDFATYYCQQFNSYPLTFGGGTKVEIKR
notes: also called 15D2-wt; 15D2 wild-type

binding: binds
B2: human anti-hIL20 monoclonal antibody 5B7 (antibody, human IgG4, V domains shown)
VH: B1 VH with T30S, N31S, D32H, I34M, Q59K, S69T, S106L
VL: B1 VL
notes: described as human IgG4; also called 5B7-wt
